Assay results taken from the supplement of paper PMC10849652.
This is one part of the list.

By UniProt entry, the sequences of proteins in these tests, tags left out. Where a name states a change or a piece, a line headed by the entry shows the natural chain unless it says otherwise.
UniProt Q13356: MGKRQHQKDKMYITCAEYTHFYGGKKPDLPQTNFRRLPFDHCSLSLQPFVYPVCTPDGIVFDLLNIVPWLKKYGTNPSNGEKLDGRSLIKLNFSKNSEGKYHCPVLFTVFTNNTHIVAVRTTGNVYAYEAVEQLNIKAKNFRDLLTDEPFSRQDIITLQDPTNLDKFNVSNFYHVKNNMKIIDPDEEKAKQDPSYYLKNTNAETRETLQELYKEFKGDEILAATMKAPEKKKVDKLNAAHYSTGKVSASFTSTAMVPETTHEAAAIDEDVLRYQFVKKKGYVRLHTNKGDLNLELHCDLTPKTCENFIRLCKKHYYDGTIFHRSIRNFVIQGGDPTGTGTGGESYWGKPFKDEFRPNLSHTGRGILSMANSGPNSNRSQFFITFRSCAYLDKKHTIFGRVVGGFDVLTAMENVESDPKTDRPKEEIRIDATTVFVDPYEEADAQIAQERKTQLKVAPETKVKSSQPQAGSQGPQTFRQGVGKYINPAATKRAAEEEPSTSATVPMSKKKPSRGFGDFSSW
UniProt P60510: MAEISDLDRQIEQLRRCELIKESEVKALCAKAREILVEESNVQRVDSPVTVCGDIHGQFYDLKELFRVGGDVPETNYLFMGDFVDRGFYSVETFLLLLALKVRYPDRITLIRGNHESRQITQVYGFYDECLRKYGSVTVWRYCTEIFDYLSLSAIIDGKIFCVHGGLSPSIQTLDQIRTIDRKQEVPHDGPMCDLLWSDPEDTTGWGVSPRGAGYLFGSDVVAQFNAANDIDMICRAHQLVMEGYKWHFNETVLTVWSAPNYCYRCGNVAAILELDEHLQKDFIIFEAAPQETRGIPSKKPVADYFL
UniProt P41743, whole entry, looked up: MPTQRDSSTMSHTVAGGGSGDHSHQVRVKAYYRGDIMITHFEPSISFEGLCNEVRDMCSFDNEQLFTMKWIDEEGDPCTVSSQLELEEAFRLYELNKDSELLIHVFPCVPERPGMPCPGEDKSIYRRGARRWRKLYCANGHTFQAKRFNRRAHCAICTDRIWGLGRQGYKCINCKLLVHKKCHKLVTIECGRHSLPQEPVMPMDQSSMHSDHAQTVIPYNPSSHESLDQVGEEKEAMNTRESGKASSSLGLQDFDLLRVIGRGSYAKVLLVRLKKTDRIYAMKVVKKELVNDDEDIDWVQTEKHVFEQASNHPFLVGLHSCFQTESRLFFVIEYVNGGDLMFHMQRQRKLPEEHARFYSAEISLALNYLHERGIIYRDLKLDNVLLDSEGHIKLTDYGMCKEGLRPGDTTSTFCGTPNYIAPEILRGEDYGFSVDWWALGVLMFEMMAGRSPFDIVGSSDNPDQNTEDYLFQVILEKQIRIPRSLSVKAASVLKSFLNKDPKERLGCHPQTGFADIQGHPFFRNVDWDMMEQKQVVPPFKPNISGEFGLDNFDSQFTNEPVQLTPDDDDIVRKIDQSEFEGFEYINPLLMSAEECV
UniProt O60678: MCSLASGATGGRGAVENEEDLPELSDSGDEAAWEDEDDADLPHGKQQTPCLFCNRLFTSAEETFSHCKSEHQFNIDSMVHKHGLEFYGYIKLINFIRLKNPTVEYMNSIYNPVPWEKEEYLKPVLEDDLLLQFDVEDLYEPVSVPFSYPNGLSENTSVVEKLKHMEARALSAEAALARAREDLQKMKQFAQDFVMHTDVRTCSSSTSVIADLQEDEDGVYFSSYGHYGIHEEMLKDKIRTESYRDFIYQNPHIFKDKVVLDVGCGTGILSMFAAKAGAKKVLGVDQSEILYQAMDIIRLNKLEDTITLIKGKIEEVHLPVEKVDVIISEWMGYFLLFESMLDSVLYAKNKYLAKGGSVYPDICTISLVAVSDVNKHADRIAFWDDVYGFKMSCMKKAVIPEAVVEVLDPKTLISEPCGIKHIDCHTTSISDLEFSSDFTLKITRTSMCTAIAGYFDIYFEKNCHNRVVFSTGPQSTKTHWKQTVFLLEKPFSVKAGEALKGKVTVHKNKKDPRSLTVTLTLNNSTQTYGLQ
UniProt Q9Y3C6: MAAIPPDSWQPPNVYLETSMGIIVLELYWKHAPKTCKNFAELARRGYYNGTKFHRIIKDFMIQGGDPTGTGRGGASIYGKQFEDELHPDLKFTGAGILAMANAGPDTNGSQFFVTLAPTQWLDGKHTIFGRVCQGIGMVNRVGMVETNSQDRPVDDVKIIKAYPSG
UniProt O43172: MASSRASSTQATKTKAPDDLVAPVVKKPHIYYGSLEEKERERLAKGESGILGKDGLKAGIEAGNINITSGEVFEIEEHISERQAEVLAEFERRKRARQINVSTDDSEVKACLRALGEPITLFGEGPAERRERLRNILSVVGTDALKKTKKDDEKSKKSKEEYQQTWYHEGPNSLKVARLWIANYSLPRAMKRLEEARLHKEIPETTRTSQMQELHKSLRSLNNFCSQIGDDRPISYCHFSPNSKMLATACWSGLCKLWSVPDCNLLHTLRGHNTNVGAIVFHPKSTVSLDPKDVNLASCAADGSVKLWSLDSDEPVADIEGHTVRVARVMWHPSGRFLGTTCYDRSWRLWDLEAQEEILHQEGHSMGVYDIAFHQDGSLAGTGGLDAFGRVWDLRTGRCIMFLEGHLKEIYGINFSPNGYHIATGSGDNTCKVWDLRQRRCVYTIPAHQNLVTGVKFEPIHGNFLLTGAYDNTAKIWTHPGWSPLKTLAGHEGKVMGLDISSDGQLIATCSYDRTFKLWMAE
UniProt Q96LW4: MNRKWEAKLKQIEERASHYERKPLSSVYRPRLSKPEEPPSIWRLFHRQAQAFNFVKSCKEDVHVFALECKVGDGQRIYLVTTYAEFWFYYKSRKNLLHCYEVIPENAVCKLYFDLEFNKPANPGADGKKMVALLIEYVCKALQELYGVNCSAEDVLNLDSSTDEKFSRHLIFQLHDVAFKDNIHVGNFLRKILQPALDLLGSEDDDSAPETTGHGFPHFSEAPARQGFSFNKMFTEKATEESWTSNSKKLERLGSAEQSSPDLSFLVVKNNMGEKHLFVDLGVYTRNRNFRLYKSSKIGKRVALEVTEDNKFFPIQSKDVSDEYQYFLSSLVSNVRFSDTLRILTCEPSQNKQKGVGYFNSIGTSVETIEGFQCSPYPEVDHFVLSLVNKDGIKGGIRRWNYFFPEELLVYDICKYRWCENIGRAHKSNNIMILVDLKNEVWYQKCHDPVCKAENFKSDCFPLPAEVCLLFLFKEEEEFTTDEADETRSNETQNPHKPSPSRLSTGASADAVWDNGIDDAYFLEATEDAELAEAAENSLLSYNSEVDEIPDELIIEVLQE
UniProt P62136, whole entry, looked up: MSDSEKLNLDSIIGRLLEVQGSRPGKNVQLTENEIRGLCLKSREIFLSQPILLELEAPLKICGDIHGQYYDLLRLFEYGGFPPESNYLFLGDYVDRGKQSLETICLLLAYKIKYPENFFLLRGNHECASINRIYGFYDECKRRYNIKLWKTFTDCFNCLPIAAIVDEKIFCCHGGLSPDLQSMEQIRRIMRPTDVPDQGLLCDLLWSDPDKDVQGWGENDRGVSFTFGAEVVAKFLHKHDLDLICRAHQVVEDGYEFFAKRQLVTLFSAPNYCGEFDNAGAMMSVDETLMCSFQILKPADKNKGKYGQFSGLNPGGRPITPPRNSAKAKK
UniProt Q6IN85: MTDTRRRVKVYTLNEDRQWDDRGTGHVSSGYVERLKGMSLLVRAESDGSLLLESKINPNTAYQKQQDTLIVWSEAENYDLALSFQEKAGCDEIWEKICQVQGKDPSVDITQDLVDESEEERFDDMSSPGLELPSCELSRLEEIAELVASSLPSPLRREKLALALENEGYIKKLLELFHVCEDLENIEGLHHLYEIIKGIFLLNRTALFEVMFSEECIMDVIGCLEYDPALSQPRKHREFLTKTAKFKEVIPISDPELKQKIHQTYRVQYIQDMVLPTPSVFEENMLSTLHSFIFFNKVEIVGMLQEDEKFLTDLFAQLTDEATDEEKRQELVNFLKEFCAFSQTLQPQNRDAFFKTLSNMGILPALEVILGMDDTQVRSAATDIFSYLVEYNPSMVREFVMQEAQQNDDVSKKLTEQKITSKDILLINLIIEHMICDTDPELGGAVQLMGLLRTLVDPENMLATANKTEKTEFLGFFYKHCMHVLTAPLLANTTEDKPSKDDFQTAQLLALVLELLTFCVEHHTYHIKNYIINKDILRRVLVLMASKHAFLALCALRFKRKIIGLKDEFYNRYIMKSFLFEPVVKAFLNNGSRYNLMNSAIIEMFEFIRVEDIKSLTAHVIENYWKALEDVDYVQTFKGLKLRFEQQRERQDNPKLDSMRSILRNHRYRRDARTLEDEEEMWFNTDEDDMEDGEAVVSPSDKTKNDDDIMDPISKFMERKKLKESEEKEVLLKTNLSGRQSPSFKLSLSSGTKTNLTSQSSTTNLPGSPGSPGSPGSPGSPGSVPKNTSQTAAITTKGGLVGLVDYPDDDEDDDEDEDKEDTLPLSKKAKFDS
UniProt O75688: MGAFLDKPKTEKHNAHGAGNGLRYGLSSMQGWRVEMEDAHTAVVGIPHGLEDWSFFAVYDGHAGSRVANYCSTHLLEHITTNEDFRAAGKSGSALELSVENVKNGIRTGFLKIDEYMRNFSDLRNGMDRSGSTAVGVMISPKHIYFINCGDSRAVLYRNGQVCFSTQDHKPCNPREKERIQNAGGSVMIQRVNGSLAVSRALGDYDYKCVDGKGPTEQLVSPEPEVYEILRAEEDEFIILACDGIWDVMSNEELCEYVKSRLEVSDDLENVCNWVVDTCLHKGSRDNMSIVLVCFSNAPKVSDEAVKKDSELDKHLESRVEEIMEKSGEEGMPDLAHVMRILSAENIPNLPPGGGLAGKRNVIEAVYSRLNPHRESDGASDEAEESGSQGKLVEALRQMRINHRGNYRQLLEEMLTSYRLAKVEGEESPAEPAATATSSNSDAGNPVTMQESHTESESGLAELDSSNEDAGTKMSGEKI
UniProt Q96A00: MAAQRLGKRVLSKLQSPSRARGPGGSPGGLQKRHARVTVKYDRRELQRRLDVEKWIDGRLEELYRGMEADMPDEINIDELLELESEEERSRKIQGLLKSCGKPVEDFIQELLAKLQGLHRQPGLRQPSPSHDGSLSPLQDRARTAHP
UniProt Q9ULR3: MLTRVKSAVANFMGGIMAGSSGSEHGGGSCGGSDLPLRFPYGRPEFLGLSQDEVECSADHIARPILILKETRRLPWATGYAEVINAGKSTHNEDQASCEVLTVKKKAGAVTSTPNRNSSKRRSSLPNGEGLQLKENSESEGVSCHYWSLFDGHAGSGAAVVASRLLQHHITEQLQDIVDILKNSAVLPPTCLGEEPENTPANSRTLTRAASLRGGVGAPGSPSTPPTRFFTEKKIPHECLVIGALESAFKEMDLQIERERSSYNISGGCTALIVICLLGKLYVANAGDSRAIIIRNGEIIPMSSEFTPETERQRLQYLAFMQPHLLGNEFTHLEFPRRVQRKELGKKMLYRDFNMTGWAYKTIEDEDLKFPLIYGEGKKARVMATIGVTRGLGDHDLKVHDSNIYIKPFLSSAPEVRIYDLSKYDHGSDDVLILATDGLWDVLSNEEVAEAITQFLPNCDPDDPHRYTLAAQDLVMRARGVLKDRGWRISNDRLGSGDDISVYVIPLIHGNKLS

Key:
Assay in all cases: log2 fold change, soluble protein after heating vs DMSO (PISA); higher = thermal stabilisation; K562 lysate, 10 uM; active = over 0.2 and 3.5 SD of the protein, either way, in both replicates (recomputed)
erlotinib = compound: C#Cc1cccc(Nc2ncnc3cc(OCCOC)c(OCCOC)cc23)c1 [erlotinib]
Procedure, shortened: (§1)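 The values are log-two fold changes in thermal stability compared with solvent controls and come from duplicates. They were obtained by TMTpro 16plex LC-MS/MS, with channel sums equalised, on the supernatant after 21,000xg for 90 min. That supernatant came from crude K562 extract at 1 mg/mL protein treated with 10 μM compound for 30 min, heated for 3 min across 48°C-58°C, pooled and brought to 0.5% NP-40 at 4°C.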

[1] = compound: C/C(=N\NC(=O)C1=CC(=CC=C1)S(=O)(=O)N2CCOCC2)/C3=C(C=CC(=C3)Cl)O
Procedure, shortened: as §1

[2] = compound: C1=CC(=CC=C1C2=NC3=C(N2)C=C(C=C3)C(=O)N)OC4=CC=C(C=C4)Cl
Procedure, shortened: as §1

[3] = compound: C1=CC2=C(C=CC(=C2)/C=C\3/C(=O)NC(=NCC4=CC=CS4)S3)N=C1
Procedure, shortened: as §1

[4] = compound: C1=CC2=NC=CN=C2C=C1/C=C/3\C(=O)NC(=O)S3
Procedure, shortened: as §1

[5] = compound: C1=CC=C(C=C1)C2=NC(=C(N2)C3=CC=NC=C3)C4=CC(=C(C=C4)Cl)O
Procedure, shortened: as §1

[6] = compound: C1=CC=C2C(=C1)C3=NNC4=CC=CC(=C43)C2=O
Procedure, shortened: as §1

[7] = compound: C1CCN(C1)C(=O)NC2=CC=CC(=C2)NC3=NC=C(C(=N3)NCCC4=CN=CN4)Br
Procedure, shortened: as §1

[8] = compound: C1CN(CCC1(CC2=CC=C(C=C2)Cl)N)C3=NC=NC4=C3C=CN4
Procedure, shortened: as §1

IRAK-1-4 Inhibitor I = compound: C1COCCN1CCN2C3=CC=CC=C3N=C2NC(=O)C4=CC(=CC=C4)[N+](=O)[O-] [IRAK-1-4 Inhibitor I]
Procedure, shortened: as §1

ibrutinib = compound: C=CC(=O)N1CCC[C@@H](n2nc(-c3ccc(Oc4ccccc4)cc3)c3c(N)ncnc32)C1 [ibrutinib]
Procedure, shortened: as §1

[9] = compound: CC(=O)c1cnc2ccc(-c3cc(Cl)c(O)c(Cl)c3)nc2c1N[C@H]1CC[C@H](CN(C)C)CC1
Procedure, shortened: as §1

ralimetinib = compound: CC(C)(C)Cn1c(N)nc2ccc(-c3[nH]c(C(C)(C)C)nc3-c3ccc(F)cc3)nc21 [ralimetinib]
Procedure, shortened: as §1

[10] = compound: CC(C)(O)CC(=O)NCCn1ccc2ncnc(Nc3ccc(Oc4cccc(C(F)(F)F)c4)c(Cl)c3)c21
Procedure, shortened: as §1

[11] = compound: CC(C)C1=C2N=C(C=C(N2N=C1)NCC3=CC=CC=C3)NCCCCCCN
Procedure, shortened: as §1

[12] = compound: CC1=C(C(CC(=O)N1)C2=CC=C(C=C2)C(F)(F)F)C(=O)NC3=C(C=C4C(=C3)C=NN4)F
Procedure, shortened: as §1

[13] = compound: CC1=C(C2=C(C=C1)C(=O)C3=CC=CC=C3N2CCCN)C
Procedure, shortened: as §1

[14] = compound: CC1=C(C=C(C=C1)NC(=O)C2=CC(=CC=C2)C(C)(C)C#N)NC3=CC4=C(C=C3)N=CN(C4=O)C
Procedure, shortened: as §1

[15] = compound: CC1=C(C=C(C=C1)NC(=O)C2=CC(=CC=C2)N(C)C)NC(=O)C3=CC=C(C=C3)O
Procedure, shortened: as §1

[16] = compound: CC1=CC=C(C=C1)SC2=C3C=C(SC3=CN=C2)C(=O)N
Procedure, shortened: as §1

Measured: log2 fold change

PPIL2 (UniProt Q13356)
inactive: erlotinib -0.03 | [1] 0.02 | [2] 0.007 | [3] 0.021 | [4] -0.002 | [5] 0.039 | [6] -0.045 | [7] -0.036 | [8] 0.003 | IRAK-1-4 Inhibitor I -0.016 | ibrutinib -0.002 | [9] -0.003 | ralimetinib 0.02 | [10] 0.025 | [11] 0.046 | [12] 0.011 | [13] -0.017 | [14] 0.033 | [15] 0.003 | [16] 0.005

PPP4C (UniProt P60510)
inactive: erlotinib -0.008 | [1] 0.033 | [2] 0.023 | [3] -0.023 | [4] -0.087 | [5] 0.031 | [6] -0.009 | [7] -0.028 | [8] -0.01 | IRAK-1-4 Inhibitor I 0.013 | ibrutinib 0.062 | [9] -0.01 | ralimetinib 0.018 | [10] -0.044 | [11] -0.008 | [12] -0.032 | [13] -0.038 | [14] 0.016 | [15] 0.02 | [16] -0.031

PRKCI (UniProt P41743)
inactive: erlotinib 0.048 | [1] 0.068 | [2] 0.028 | [3] -0.012 | [4] 0.004 | [5] 0.056 | [6] 0.029 | [7] 0.001 | [8] 0.02 | IRAK-1-4 Inhibitor I 0.005 | ibrutinib -0.011 | [9] 0.022 | ralimetinib 0.016 | [10] 0.004 | [11] 0.036 | [12] -0.009 | [13] -0.035 | [14] 0.04 | [15] 0.009 | [16] -0.008

PRMT3 (UniProt O60678)
inactive: erlotinib 0.014 | [1] -0.019 | [2] -0.029 | [3] -0.014 | [4] 0.021 | [5] 0.001 | [6] -0.005 | [7] -0.011 | [8] 0.009 | IRAK-1-4 Inhibitor I 0.026 | ibrutinib -0.018 | [9] -0.01 | ralimetinib -0.017 | [10] -0.094 | [11] 0.001 | [12] -0.044 | [13] 0.021 | [14] 0.022 | [15] -0.02 | [16] -0.012

PPIL1 (UniProt Q9Y3C6)
inactive: erlotinib 0 | [1] 0.026 | [2] -0.039 | [3] 0.021 | [4] 0.016 | [5] 0 | [6] -0.022 | [7] -0.009 | [8] 0.038 | IRAK-1-4 Inhibitor I 0.016 | ibrutinib 0.012 | [9] -0.01 | ralimetinib 0.015 | [10] -0.041 | [11] -0.052 | [12] -0.024 | [13] -0.011 | [14] -0.039 | [15] 0.025 | [16] -0.02

PRPF4 (UniProt O43172)
inactive: erlotinib -0.004 | [1] -0.044 | [2] 0.042 | [3] 0.007 | [4] 0.01 | [5] 0.018 | [6] 0.022 | [7] -0.021 | [8] 0.018 | IRAK-1-4 Inhibitor I 0.011 | ibrutinib -0.016 | [9] -0.019 | ralimetinib -0.016 | [10] -0.014 | [11] -0.012 | [12] -0.009 | [13] -0.027 | [14] 0.028 | [15] 0.004 | [16] 0.004

PRIMPOL (UniProt Q96LW4)
inactive: erlotinib -0.063 | [1] 0.007 | [2] -0.02 | [3] -0.025 | [4] 0.076 | [5] -0.013 | [6] 0.019 | [7] 0.009 | [8] -0.046 | IRAK-1-4 Inhibitor I 0.059 | ibrutinib 0.062 | ralimetinib 0.055 | [10] -0.027 | [11] 0.048 | [12] -0.055 | [13] -0.034 | [14] 0.078 | [15] 0.049

PPP1CA (UniProt P62136)
inactive: erlotinib 0.007 | [1] 0.045 | [2] 0.03 | [3] -0.041 | [4] -0.004 | [5] 0.031 | [6] 0 | [7] -0.024 | [8] 0.007 | IRAK-1-4 Inhibitor I -0.001 | ibrutinib 0 | [9] 0.008 | ralimetinib 0.016 | [10] -0.019 | [11] -0.028 | [12] -0.018 | [13] 0.016 | [14] 0.024 | [15] -0.011 | [16] 0.013

PPP4R3A (UniProt Q6IN85)
inactive: erlotinib -0.001 | [1] 0.001 | [2] -0.021 | [3] 0.021 | [4] -0.031 | [5] -0.016 | [6] -0.011 | [7] -0.018 | [8] 0.008 | IRAK-1-4 Inhibitor I 0.045 | ibrutinib 0.041 | [9] -0.013 | ralimetinib 0.005 | [10] 0.026 | [11] 0.026 | [12] -0.021 | [13] -0.044 | [14] -0.01 | [15] -0.017 | [16] -0.001

PPM1B (UniProt O75688)
inactive: erlotinib -0.013 | [1] 0.009 | [2] -0.006 | [3] 0.019 | [4] 0.001 | [5] 0.004 | [6] -0.02 | [7] 0.007 | [8] -0.015 | IRAK-1-4 Inhibitor I 0.015 | ibrutinib -0.014 | [9] -0.025 | ralimetinib -0.022 | [10] -0.01 | [11] 0.007 | [12] -0.012 | [13] -0.069 | [14] 0.034 | [15] -0.002 | [16] -0.014

PPP1R14A (UniProt Q96A00)
inactive: erlotinib 0.031 | [1] 0.058 | [2] 0.056 | [3] -0.064 | [4] -0.015 | [5] 0.035 | [6] 0.023 | [7] -0.004 | [8] -0.006 | IRAK-1-4 Inhibitor I 0.004 | ibrutinib 0.095 | [9] 0.001 | ralimetinib -0.015 | [10] 0.021 | [11] 0.002 | [12] -0.02 | [13] -0.003 | [14] 0.05 | [15] -0.004 | [16] -0.011

PRKCA (UniProt P17252)
inactive: erlotinib 0.031 | [1] -0.086 | [2] -0.019 | [3] 0.108 | [4] 0 | [5] 0.044 | [6] -0.088 | [7] -0.037 | [8] 0.044 | IRAK-1-4 Inhibitor I 0.005 | ibrutinib 0.015 | ralimetinib -0.012 | [10] 0.069 | [11] 0.032 | [12] -0.015 | [13] -0.094 | [14] -0.002 | [15] 0.033 | [16] -0.045
active: [9] 0.366

PPM1H (UniProt Q9ULR3)
active: [2] 0.25
inactive: erlotinib -0.048 | [1] -0.045 | [3] 0.021 | [4] -0.049 | [5] 0.009 | [6] 0.011 | [7] -0.039 | [8] 0.101 | IRAK-1-4 Inhibitor I 0.037 | ibrutinib 0.058 | [9] -0.032 | ralimetinib -0.008 | [10] -0.035 | [11] 0.019 | [13] -0.028 | [14] 0.048 | [15] -0.007 | [16] 0.02

Pulled one by one from the list above (two):
PRKCI (UniProt P41743)
inactive: erlotinib 0.048 | [1] 0.068 | [2] 0.028 | [3] -0.012 | [4] 0.004 | [5] 0.056 | [6] 0.029 | [7] 0.001 | [8] 0.02 | IRAK-1-4 Inhibitor I 0.005 | ibrutinib -0.011 | [9] 0.022 | ralimetinib 0.016 | [10] 0.004 | [11] 0.036 | [12] -0.009 | [13] -0.035 | [14] 0.04 | [15] 0.009 | [16] -0.008

PPIL1 (UniProt Q9Y3C6)
inactive: erlotinib 0 | [1] 0.026 | [2] -0.039 | [3] 0.021 | [4] 0.016 | [5] 0 | [6] -0.022 | [7] -0.009 | [8] 0.038 | IRAK-1-4 Inhibitor I 0.016 | ibrutinib 0.012 | [9] -0.01 | ralimetinib 0.015 | [10] -0.041 | [11] -0.052 | [12] -0.024 | [13] -0.011 | [14] -0.039 | [15] 0.025 | [16] -0.02
